Drawing on paper PMC4117494, this text covers binding for three molecules.

Amino acid sequences for entries named in this document (tags omitted). Residues count along the entry.
UniProt O00567, residues 1-411: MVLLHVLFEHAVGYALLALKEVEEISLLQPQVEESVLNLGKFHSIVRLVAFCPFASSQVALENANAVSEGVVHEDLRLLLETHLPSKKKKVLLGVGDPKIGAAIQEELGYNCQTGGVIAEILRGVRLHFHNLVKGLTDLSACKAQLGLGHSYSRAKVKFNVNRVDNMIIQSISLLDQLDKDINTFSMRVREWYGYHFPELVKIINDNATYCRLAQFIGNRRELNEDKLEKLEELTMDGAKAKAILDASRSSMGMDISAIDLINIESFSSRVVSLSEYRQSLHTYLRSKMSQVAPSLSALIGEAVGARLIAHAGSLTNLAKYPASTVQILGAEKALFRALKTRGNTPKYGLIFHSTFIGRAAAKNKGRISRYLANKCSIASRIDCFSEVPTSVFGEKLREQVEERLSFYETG

No constants are given. Whether binding was seen depends on the method and setting. Some results given as binding are weak or reduced against the parent protein; the word gives no strength.

For this assay, the target named is Homo sapiens NOP56 (amino acids 1 to 411), histidine-tagged (Homo sapiens) (UniProt O00567). As to the kind of experiment: co-purification after co-expression (Ni-NTA affinity, gel filtration); human NOP56 1-411 (single histidine tag), NOP58 1-401, fibrillarin 83-316, 15.5 K and tRNA-U14 RNA co-expressed in E. coli Nico21 (DE3); lysis buffer 25 mM Na2HPO4 pH 7.6, 500 mM NaCl, 10% glycerol, 0.5% Triton X-100; Ni-NTA (50 mM imidazole wash, 250 mM elution), then Superdex 200; proteins identified by SDS-PAGE (Coomassie) and mass spectroscopy. In general terms: SEC sorts molecules by how far they enter the pores of the column.

B1: Homo sapiens fibrillarin (amino acids 83 to 316), without the GAR domain (domain or fragment, UniProt P22087 83-316)
chain: GKNVMVEPHRHEGVFICRGKEDALVTKNLVPGESVYGEKRVSISEGDDKIEYRAWNPFRSKLAAAILGGVDQIHIKPGAKVLYLGAASGTTVSHVSDIVGPDGLVYAVEFSHRSGRDLINLAKKRTNIIPVIEDARHPHKYRMLIAMVDVIFADVAQPDQTRIVALNAHTFLRNGGHFVISIKANCIDSTASAEAVFASEVKKMQQENMKPQEQLTLEPYERDHAVVVGVYRPP
For the molecule B1, the binding result was “binds”.

B2: Homo sapiens NOP58 (amino acids 1 to 401) (domain or fragment, UniProt Q9Y2X3 1-401)
chain: MLVLFETSVGYAIFKVLNEKKLQEVDSLWKEFETPEKANKIVKLKHFEKFQDTAEALAAFTALMEGKINKQLKKVLKKIVKEAHEPLAVADAKLGGVIKEKLNLSCIHSPVVNELMRGIRSQMDGLIPGVEPREMAAMCLGLAHSLSRYRLKFSADKVDTMIVQAISLLDDLDKELNNYIMRCREWYGWHFPELGKIISDNLTYCKCLQKVGDRKNYASAKLSELLPEEVEAEVKAAAEISMGTEVSEEDICNILHLCTQVIEISEYRTQLYEYLQNRMMAIAPNVTVMVGELVGARLIAHAGSLLNLAKHAASTVQILGAEKALFRALKSRRDTPKYGLIYHASLVGQTSPKHKGKISRMLAAKTVLAIRYDAFGEDSSSAMGVENRAKLEARLRTLEDR
B2: the binding result is recorded as “binds”.

B3: Homo sapiens 15.5 K (protein, UniProt P55769 1-128)
chain: MTEADVNPKAYPLADAHLTKKLLDLVQQSCNYKQLRKGANEATKTLNRGISEFIVMAADAEPLEIILHLPLLCEDKNVPYVFVRSKQALGRACGVSRPVIACSVTIKEGSQLKQQIQSIQQSIERLLV
In the case of B3, the binding result is on record as “binds weakly”.
